# Assay results published in PubChem BioAssay (Tox21).
# Protein sequences, listed by entry. Tags and fused reporters are not part of them.
# UniProt P07550, whole entry: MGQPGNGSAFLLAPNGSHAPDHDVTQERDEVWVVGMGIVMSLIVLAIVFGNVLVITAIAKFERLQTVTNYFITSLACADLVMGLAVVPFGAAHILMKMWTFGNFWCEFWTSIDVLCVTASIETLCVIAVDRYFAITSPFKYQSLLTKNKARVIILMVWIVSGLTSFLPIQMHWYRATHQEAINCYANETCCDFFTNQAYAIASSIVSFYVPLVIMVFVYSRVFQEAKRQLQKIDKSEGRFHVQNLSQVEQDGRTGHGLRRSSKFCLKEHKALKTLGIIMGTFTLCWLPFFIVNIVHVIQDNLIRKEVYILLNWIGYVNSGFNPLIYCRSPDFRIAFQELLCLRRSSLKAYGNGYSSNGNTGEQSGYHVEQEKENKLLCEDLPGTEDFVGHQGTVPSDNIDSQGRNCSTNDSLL
# These results got no clear call from the source, so the numbers are uncertain. Unless noted, the call rests on the fitted dose curve.
# System: not listed separately
# Experiment: cAMP Responsive Elements (CRE) small molecule antagonists, cell-based qHTS assay (AID 1963591; active means well fitted inhibition curve with a large enough effect in the signal ratio in the repeat runs, not every such curve was filed as active; inconclusive means weak or mixed curves, or effect the other way; the % refers to the signal ratio; on activity change, negative = inhibition: on the % scale 0 is the no-effect control and ±100 the full control effect)
# Settings: CRE-bla HEK293T, beta-lactamase FRET ratio; activity change, negative = inhibition: at 92.4 µM (top of the series)
# Description: U.S. Tox21 Program National Center for Advancing Translational Sciences [NCATS] Division of Preclinical Innovation [DPI] U.S. Environmental Protection Agency [EPA] National Institutes of Environmental Health Sciences [NIEHS] National Toxicology Program [NTP] U.S. Food and Drug Administration [FDA] Tox21 Assay Overview: CREB (cyclic-AMP Responsive Element Binding Protein) is a cellular transcription factor. It binds to certain DNA sequences called cAMP Responsive Elements (CRE) and regulates the transcription of the genes. […] This cell line can be used to find agonists/antagonists of the cyclic AMP signaling pathway. The activation of the report gene under culture conditions can be detected by fluorescence intensity. This cell line has been used to screen the Tox21 10K compound library to […].
# Tox21 Assay Protocol Summary: CRE-bla Hek 293T cells were suspended in assay medium (DMEM containing 10% dialyzed FBS, 0.1 mM NEAA, 1 mM sodium pyruvate and 25 mM HEPES) and dispensed at 2,000 cells/4 uL /well into 1536-well black wall/clear bottom plates using a Multidrop Combi (ThermoFisher Scientific, Waltham, MA) dispenser. After the assay plates were incubated at 37 C/5% CO2 for 18 hrs, 23 nL of compounds dissolved in DMSO, positive controls or DMSO only was transferred to the assay plate by a pintool workstation (Kalypsys, San Diego, CA), followed by addition of 1 […] uL of 1.25uM NKH477 (0.25 uM as final concentration) in assay medium using a Flying Reagent Dispenser (Aurora Discovery, San Diego, CA). The plates were incubated at 37 C and 5% CO2 for 3 hrs. Then 1 uL of LiveBLAzer B/G FRET substrate (Invitrogen, Carlsbad, CA) was added to each well using Bioraptr Flying Reagent Dispenser (FRD, Aurora Discovery, San Diego, CA). The plates were incubated at room temperature for 2 h.
# Potency means the concentration at half of the fitted maximal effect.
Compound,Potency,"activity change, negative = inhibition"
Cc1cc([N+](=O)[O-])c(O)c([N+](=O)[O-])c1,inconclusive: 30.9 µM,
CCC(=O)N(c1ccccc1)C1(COC)CCN(CCc2cccs2)CC1,,inconclusive: 11.8%
Cc1ccc([N+](=O)[O-])c([N+](=O)[O-])c1,inconclusive: 44.2 µM,
N#CSc1ccc([N+](=O)[O-])cc1[N+](=O)[O-],inconclusive: 54.5 µM,
CN(C(=O)Cc1ccccc1)[C@H]1CC[C@@]2(CCCO2)C[C@@H]1N1CCCC1,inconclusive: 33.5 µM,
CN(CCCl)CCCl,inconclusive: 68.5 µM,

# Target: Beta-2 adrenergic receptor (Homo sapiens) (UniProt P07550)
# Experiment: Adrenergic beta2 receptor (ADRB2) small molecule antagonists, cell-based qHTS assay (AID 1963592); further: nearly all actives have a fitted effect of over 50% in size
# Settings: CHO-ADRB2 cells, isoproterenol-stimulated cAMP HTRF ratio, 0.5 h
# Description: U.S. Tox21 Program National Center for Advancing Translational Sciences [NCATS] Division of Preclinical Innovation [DPI] U.S. Environmental Protection Agency [EPA] National Institutes of Environmental Health Sciences [NIEHS] National Toxicology Program [NTP] U.S. Food and Drug Administration [FDA] Tox21 Assay Overview: Beta adrenergic receptors (Beta-ARs) belong to the G-protein coupled receptor (GPCR) superfamily, includes three subtypes - beta1, beta2, and beta3. Beta1-AR is the predominant receptor subtype expressed in the heart, and beta2-AR is expressed in the kidney, lung, blood vessel and in the heart, and beta3 is found in the adipocytes. Beta1 and 2 ARs couple to Gs protein and elevate cyclic adenosine mono phosphate (cAMP), which activates protein kinase A and leads to the downstream signaling responsible for the physiological actions. Beta-AR agonists or antagonists are the most prescribed therapeutic agents for heart failure and asthma, and these were one of the first target receptors for the rational drug design. Tox21 10K compound library was screened using the cAMP-Gs dynamic assay (Cisbio Bioassays, Shelton, CT) to identify agonists/antagonists of the Gs-coupled human adrenergic, beta2 receptor (ADRB2) in the CHO-ADRB2 cell line (Codex BioSolutions, Inc. Gaithersburg, MD), which stably over-expresses ADRB2. The principle of cAMP-Gs dynamic assay is based on HTRF technology, which facilitates the fluorescence resonance energy transfer (FRET) between donor Europium cryptate and acceptor d2-labeled cAMP. […]
# Tox21 Assay Protocol Summary: CHO-ADRB2 cells were dispensed at 1,000/well in 4uL assay medium into white/solid 1536-well plates (Greiner Bio-One North America Inc., Monroe, NC) using a Multidrop Combi dispenser (ThermoFisher Scientific, Waltham, MA). […] The fluorescence signal was measured at two different wavelengths (665nm and 615nm) using an Envision plate reader (Perkin Elmer, Shelton, CT). Data were expressed as the ratio of 665 nm/615 nm.
row,Compound,Potency
1,Nc1cc([N+](=O)[O-])cc([N+](=O)[O-])c1O,inconclusive: 55.7 µM
2,N#CSc1ccc([N+](=O)[O-])cc1[N+](=O)[O-],inconclusive: 68.6 µM
3,CCNC(C)Cc1ccc2c(c1)OCO2 (centres undefined),inconclusive: 65.6 µM

# Target: Beta-2 adrenergic receptor (Homo sapiens) (UniProt P07550)
# Experiment: Adrenergic beta2 receptor (ADRB2) small molecule agonists, cell-based qHTS assay (AID 1963593); on activation: on the % scale 0 is the no-effect control and ±100 the full control effect
# Settings: CHO-ADRB2 cells, cAMP HTRF, 30 min; activation: at 92.4 µM (top of the series) unless noted
# Description: National Center for Advancing Translational Sciences [NCATS]
# Division of Preclinical Innovation [DPI]
# U.S. Environmental Protection Agency [EPA]
# National Institutes of Environmental Health Sciences [NIEHS]
# National Toxicology Program [NTP]
# U.S. Food and Drug Administration [FDA]
# Beta adrenergic receptors (Beta-ARs) belong to the G-protein coupled receptor (GPCR) superfamily, includes three subtypes - beta1, beta2, and beta3. Beta1-AR is the predominant receptor subtype expressed in the heart, and beta2-AR is expressed in the kidney, lung, blood vessel and in the heart, and beta3 is found in the adipocytes. Beta1 and 2 ARs couple to Gs protein and elevate cyclic adenosine mono phosphate (cAMP), which activates protein kinase A and leads to the downstream signaling responsible for the physiological actions. Beta-AR agonists or antagonists are the most prescribed therapeutic agents for heart failure and asthma, and these were one of the first target receptors for the rational drug design. Tox21 10K compound library was screened using the cAMP-Gs dynamic assay (Cisbio Bioassays, Shelton, CT) to identify agonists/antagonists of the Gs-coupled human adrenergic, beta2 receptor (ADRB2) in the CHO-ADRB2 cell line (Codex BioSolutions, Inc. Gaithersburg, MD), which stably over-expresses ADRB2. The principle of cAMP-Gs dynamic assay is based on HTRF technology, which facilitates the fluorescence resonance energy transfer (FRET) between donor Europium cryptate and acceptor d2-labeled cAMP. The cAMP generated within cells competes with the red acceptor, d2-labled cAMP, for binding to the monoclonal anti-cAMP-cryptate (Europium donor). An increase in intracellular cAMP leads to the disruption of FRET signal, and the signal is inversely proportional to the cAMP concentration. Isoproterenol HCl (Sigma-Aldrich, St. Louis, MO) was used as a positive control in the screening.
# Tox21 Assay Protocol Summary:
# CHO-ADRB2 cells were dispensed at 1,000/well in 4uL assay medium into white/solid 1536-well plates (Greiner Bio-One North America Inc., Monroe, NC) using a Multidrop Combi dispenser (ThermoFisher Scientific, Waltham, MA). The assay plates were incubated at 37C and 5% CO2 for an overnight (18-20hr). Then positive control and test compounds dissolved in DMSO were transferred to the assay plates at 23nL using a Pintool station (Wako, San Diego, CA). Following the compound and positive control transfer, 1uL stimulation mix containing 100uM IBMX and 25uM Ro-20-1724 was added to each well of the assay plates using BioRAPTR Flying Reagent Dispenser (FRD, Beckman Coulter, Brea, CA). The assay plates were incubated at room temperature for 0.5hr. Then 2.5ul each d2-labled cAMP and anti-cAMP-cryptate solutions were added separately to each well of the assay plates using an FRD and the assay plates were incubated at room temperature for 1hr.
Compound,Potency,activation
O=[As]c1ccccc1 (centres undefined),inconclusive: 38.6 µM,
CN(N=O)C(=N)N[N+](=O)[O-],,inconclusive: 1.06%
N#CSc1ccc([N+](=O)[O-])cc1[N+](=O)[O-],inconclusive: 68.6 µM,
CCNC(C)Cc1ccc2c(c1)OCO2 (centres undefined),inconclusive: 65.6 µM,
CN(CCCl)CCCl,,inconclusive: 8.41% [at 42.5 µM]
